In paper PMC12607891, “A broadly conserved fungal chorismate mutase targets the plant shikimate pathway to regulate salicylic acid production and other secondary metabolites” (mBio, 2025) one finds binding data, which are given here for two molecules.

This assay addresses Sclerotinia sclerotiorum secreted chorismate mutase SsCM1 (Sclerotinia sclerotiorum) (UniProt A7F9N9). Briefly: two-hybrid; Clontech yeast two-hybrid system; SsCM1 as bait (pGBKT7), AtCM1 or AtCM2 as prey (pGADT7); co-transformed into yeast strain HF7C; growth on SD-Trp-Leu-His and LacZ reporter; empty AD or BD vectors as negative controls.

No constants are given. Whether binding was seen depends on the method and setting. Binding can be weak; no strength is given.

B1: Arabidopsis chorismate mutase AtCM1 (chloroplast-localized) (enzyme, UniProt P42738 1-340)
chain: MEASLLMRSSCCSSAIGGFFDHRRELSTSTPISTLLPLPSTKSSFSVRCSLPQPSKPRSGTSSVHAVMTLAGSLTGKKRVDESESLTLEGIRNSLIRQEDSIIFGLLERAKYCYNADTYDPTAFDMDGFNGSLVEYMVKGTEKLHAKVGRFKSPDEHPFFPDDLPEPMLPPLQYPKVLHFAADSININKKIWNMYFRDLVPRLVKKGDDGNYGSTAVCDAICLQCLSKRIHYGKFVAEAKFQASPEAYESAIKAQDKDALMDMLTFPTVEDAIKKRVEMKTRTYGQEVKVGMEEKEEEEEEGNESHVYKISPILVGDLYGDWIMPLTKEVQVEYLLRRLD
In the case of B1, the binding entry is reported as “binds”.

B2: Arabidopsis chorismate mutase AtCM2 (cytosolic) (enzyme, UniProt Q9S7H4 1-265)
chain: MARVFESDSGSGCSNVLSLDLIRESLIRQEDTIVFSLIERAKFPLNSPAFEESRCLDSGSFSSLTEFFVRETEIIQAKVGRYEYPEENPFFLENIPHSVFPTHKYPSALHPKALSVNINKQIWDIYFKELLPLFVKPGDDGNYPSTAASDLACLQALSRRIHYGKFVAEVKFRDAPQDYEPAIRAQDREALMKLLTFEKVEEMVKKRVQKKAETFGQEVKFNSGYGDESKKKYKVDPLLASRIYGEWLIPLTKLVEVEYLLRRLD
Regarding B2, the binding result is recorded as “binds”.
